Measured values reported in patent US12465604B2 (priority 2015, dated 2025).
Some of these results come from one statement about several compounds together. At least one structure is not confirmed: it was looked up by name or label, or the drawing left a doubt.

Tests used:
[1] = test system: NL4-3.tCD34.R-.E-/VSV-G latent provirus in Nalm wt (+/c) cells; format: cell-based, HIV
[2] = test system: NL4-3.tCD34.R-.E-/VSV-G latent provirus in Nalm LEDGF/p75 KO (−/−) cells; format: cell-based, HIV

SMILES	increase in percentage of tCD34 positive cells relative to DMSO [1]	increase in percentage of tCD34 positive cells relative to DMSO [2]
CCCCCCCCCCCCCC(=O)O[C@@H]1[C@@H](C)[C@@]2(O)[C@@H](C=C(CO)C[C@]3(O)C(=O)C(C)=C[C@@H]23)[C@@H]2C(C)(C)[C@]12OC(C)=O [PMA, Phorbol 12-Myristate 13-Acetate]	1.5-2 fold	1.3-1.5 fold
CC(=O)O[C@@]12C[C@@H](C)[C@@]3(O)[C@@H](C=C(CO)C[C@]4(O)C(=O)C(C)=C[C@@H]34)[C@@H]1C2(C)C [Prostratin]	1.5-2 fold	1.3-1.5 fold
